In PubChem BioAssay AID540256 (National Center for Advancing Translational Sciences (NCATS), 2011):
The whole screen tested about 300,000 compounds, of which about 3,700 (1.2%) were called active. The inconclusive results got no clear call from the source; some entries with a clear call stand among them for comparison. The call rests on the fitted dose curve; tested in HEK293 cells. Potencies beside an inconclusive call are fits to weak or partial responses and may not hold up.

Assay: qHTS for Inhibitors of binding or entry into cells for Lassa Virus; further: nearly all actives have a fitted effect of over 50% in size
Conditions: Lassa virus pseudotype entry inhibition, cell reporter; activity change, negative = inhibition: at 37.9 µM (top of the series) unless noted
On the % scale 0 is the no-effect control and ±100 the full control effect; potency means the concentration at half of the fitted maximal effect.

Row | Compound | Potency | activity change, negative = inhibition
1 | CC(C)(C)NS(=O)(=O)c1ccc(Oc2ncc(C(F)(F)F)cc2Cl)cc1 | inconclusive: 23.1 µM [inhibitor, partial curve] | –
2 | COc1ccc2ncc(S(=O)(=O)c3ccccc3)c(N3CCN(c4ccccc4)CC3)c2c1 | inconclusive: 7.94 µM [inhibitor, partial curve, poor fit] | –
3 | CCCCn1c(N)c(N(CCOC)C(=O)C2CCN(S(=O)(=O)c3ccc(Cl)cc3)CC2)c(=O)[nH]c1=O | inconclusive: 3.16 µM [inhibitor, single point] | –
4 | CSc1nnc2c3ccccc3n(CCc3ccccc3)c2n1 | active: 1.03 µM | –
5 | CCn1c(=O)c(C(=O)CN2CCN(Cc3ccc4c(c3)OCO4)CC2)c(N)n(Cc2ccccc2)c1=O | – | inactive: -14.8% [at 46.1 µM]
6 | O=C(CCSCc1cccc(Cl)c1)N1CCN(c2ccc(Cl)cc2)CC1 | inconclusive: 6.31 µM [activator, single point] | –
7 | c1ccc2c(N3CCCCC3)ncnc2c1 | – | inactive: -6.1%
8 | COc1ccc(OC)c(NC(=O)CSc2ccc3ccccc3c2)c1 | inconclusive: 8.91 µM [activator, partial curve, poor fit] | –
9 | CCOC(=O)c1nn(-c2cccc(OC)c2)c2nc(Nc3ccccc3)cc(=O)n12 | – | inactive: -6.69%
10 | COc1cccc(/C=N/NC(=O)CNC(=O)C2COc3ccccc3O2)c1O (stereo not given) | inconclusive: 13 µM [inhibitor, partial curve, poor fit] | –
11 | COc1cccc(C(=O)CC(=O)C(=O)Nc2ccc(C)cc2Cl)c1 | – | inactive: 28.9% [at 46.1 µM]
12 | O=C(COc1ccc(Cl)cc1)N1CCN(C(=O)c2cccs2)CC1 | inconclusive: 12.6 µM [inhibitor, partial curve, poor fit] | –
13 | O=C1OCC/C1=C\c1ccccc1O | – | inactive: 4.22%
14 | CCOC(=O)c1cn2c(C)cccc2n1 | inconclusive: 31.6 µM [inhibitor, single point] | –
15 | N=c1sccn1Cc1ccc(Cl)cc1Cl | – | inactive: 25.9%
16 | COC(=O)c1c(NC(=O)Cc2coc3cc(C)ccc23)sc2c1CCC2 | – | inactive: 21.8% [at 46.1 µM]
17 | Cc1cc(C)cc(NC(=O)CSc2nc(=O)n(CCN3CCOCC3)c3c2CCC3)c1 | inconclusive: 0.631 µM [inhibitor, full curve, poor fit] | –
18 | O=c1[nH]c(=O)n(CCc2ccccc2)c(O)c1C=NCc1ccc2c(c1)OCO2 | inconclusive: 1.83 µM [inhibitor, full curve, poor fit] | –
19 | CCCCCc1nc2ccccc2c(=O)n1-c1ccc(C)cc1 | inconclusive: 35.5 µM [activator, single point] | –
20 | CCOC(=O)N1CCN(C(=O)CN(c2ccccc2F)S(=O)(=O)c2ccc(C)cc2)CC1 | inconclusive: 10 µM [inhibitor, partial curve, poor fit] | –

From no. 4 up to 5, as listed above:
Row | Compound | Potency | activity change, negative = inhibition
4 | CSc1nnc2c3ccccc3n(CCc3ccccc3)c2n1 | active: 1.03 µM | –
5 | CCn1c(=O)c(C(=O)CN2CCN(Cc3ccc4c(c3)OCO4)CC2)c(N)n(Cc2ccccc2)c1=O | – | inactive: -14.8% [at 46.1 µM]
